Results deposited as PubChem BioAssay AID1259308 (NCATS, 2017)
The whole screen tested about 59,000 reagents; this is a part drawn at random. About 1,510 of them (2.6%) were called active. 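Calls use total luciferase alone and ignore viability, so some active siRNAs may act by altering cell number.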 A number with no mark means an inactive call. Not all columns of the deposit are shown.

- Test: 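Genes whose loss raises luciferase production in HEK293 cells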 (primary screen)
- Cells: human HEK293 embryonic kidney cells stably expressing firefly luciferase (HEK-CMV-Luc2-Hygro)
- Reagents: single siRNA against human genes, 0.8 pmol siRNA per well
- Timing: 72 h
- Detection: 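Reporter luminescence and viable-cell signal on separate replicate plates, given as percent of non-targeting control and median/MAD z-scores, plus per-cell luciferase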
- Direction: total luciferase, z-score: higher = more reporter protein produced
- Rule for the call: 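Active when the median/MAD z-score for overall luciferase is greater than 3; a gene was taken forward for validation with new siRNAs if at least two of its three siRNAs passed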
- Meaning of the calls: active = raised luciferase; inactive = no rise

gene,PubChem SID,"total luciferase, z-score"
RPRML,SID160765849,1.12
RPRML,SID160765850,1.85
RPRML,SID160765852,-0.62
BTN3A2,SID160729978,0.059
BTN3A2,SID160729980,-0.0871
BTN3A2,SID160730506,-0.776
FDFT1,SID160717719,0.957
FDFT1,SID160717824,1.14
FDFT1,SID160717926,0.194
ADGRF1,SID160730944,-0.691
ADGRF1,SID160762694,-0.845
ADGRF1,SID160762695,3.79 (active)
FASTKD4,SID160721785,-0.251
FASTKD4,SID160721786,-0.78
FASTKD4,SID160721787,-0.629
H3C4,SID160719893,2.01
H3C4,SID160719894,0.971
H3C4,SID160724156,0.303
HMGB3P19,SID160772994,0.795
HMGB3P19,SID160772995,0.121
HMGB3P19,SID160772996,0.194
MUS81,SID160750189,1.13
MUS81,SID160750190,6.54 (active)
MUS81,SID160750192,0.916
UBE2E2,SID160718531,-1.05
UBE2E2,SID160718532,-2.02
UBE2E2,SID160718533,-0.782
DTHD1,SID160767157,0.71
DTHD1,SID160767158,-2.59
DTHD1,SID160767160,-2.84
CAMK2N1,SID160743690,-0.683
CAMK2N1,SID160743691,-0.257
CAMK2N1,SID160743692,1.07
HOXD8,SID160775257,-0.121
HOXD8,SID160775258,0.255
HOXD8,SID160775259,0.0918
PDE9A,SID160714021,-0.667
PDE9A,SID160714022,-0.918
PDE9A,SID160714023,1.65
C1orf198,SID160752850,2.84
C1orf198,SID160752851,0.264
C1orf198,SID160752852,-0.385
OR4E1,SID160774234,-0.463
OR4E1,SID160774235,-0.0446
OR4E1,SID160774237,0.565
LOC646629,SID160725960,-0.653
LOC646629,SID160725961,-1.32
LOC646629,SID160769962,-0.658
GALNT11,SID160747270,1.26
GALNT11,SID160747271,-0.012
GALNT11,SID160747272,-0.428
CDKN2C,SID160730428,-1.77
CDKN2C,SID160741144,-0.0737
CDKN2C,SID160741165,-0.76
CD1A,SID160738024,1.39
CD1A,SID160738034,-0.302
CD1A,SID160738046,0.453
